Measured data: PubChem BioAssay AID1224828 (NIAID, 2016)

Aim: 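Regulators linking TLR4 signalling to p65 nuclear translocation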 (primary screen)
System: mouse RAW264.7 G9 macrophage reporter cells (GFP-p65, Tnf promoter-mCherry)
Reagent: siRNA pool against mouse genes, 100 nM
Timing: 2 days siRNA transfection, then 40 min LPS before fixation
Conditions: LPS (Salmonella minnesota R595) at 10 ng/ml
Detection: 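Imaged p65 nuclear translocation ratio, normalised to the plate median, converted to robust z-scores and averaged across two replicates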
Direction: p65 translocation robust z-score: higher = more nuclear NF-kappaB p65 after LPS than the plate median; nuclear/cytoplasmic p65 ratio: higher = more nuclear NF-kappaB p65
Hit rule: 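Called active when z exceeds 3.3 or falls under -1.56 (median of Tlr4 controls), giving activity score of at least 50; no calls for control wells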
Meaning of the calls: active = hit (p65 shift raised or lowered); inactive = no clear change
Shown is an unselected part of about 17,000 deposited reagents. Over the whole deposit, 762 (4.5%) are marked active. 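Active calls include both raised and lowered p65 entry, mostly lowered; wells with fewer than 50 cells lack a z-score.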 Raw values vary from plate to plate and are shown uncorrected. Unmarked entries are inactive. The numbers tell different reagents against one gene apart.

gene	reagent	p65 translocation robust z-score	nuclear/cytoplasmic p65 ratio, rep 1	nuclear/cytoplasmic p65 ratio, rep 2	low cell count flag
Rhobtb1 (Rho-related BTB domain containing 1)	1	-0.7	1.45	1.39	enough cells to score
Tigd4 (tigger transposable element derived 4)	1	1.04	1.56	1.68	enough cells to score
Als2 (alsin Rho guanine nucleotide exchange factor)	1	0.94	1.78	1.74	enough cells to score
Vsig8 (V-set and immunoglobulin domain containing 8)	1		1.08	1.04	fewer than 50 cells per well; well left out of scoring
Akap8l (A kinase anchor protein 8-like)	1	-0.51	1.48	1.6	enough cells to score
Ahcy (S-adenosylhomocysteine hydrolase)	1	0.41	1.65	1.77	enough cells to score
Ptprs (protein tyrosine phosphatase receptor type S)	1	0.26	1.55	1.56	enough cells to score
Sertad4 (SERTA domain containing 4)	1		1.32	1.27	fewer than 50 cells per well; well left out of scoring
Gramd1c (GRAM domain containing 1C)	1		1.28	1.24	fewer than 50 cells per well; well left out of scoring
Vmn1r225 (vomeronasal 1 receptor 225)	1	-1.85 (active)	1.15	1.1	enough cells to score
Snapin (SNAP-associated protein)	1		1.13	1.05	fewer than 50 cells per well; well left out of scoring
Abhd14b (abhydrolase domain containing 14b)	1	0.82	1.63	1.39	enough cells to score
Zxdc (ZXD family zinc finger C)	1	-0.74	1.47	1.72	enough cells to score
Nxph3 (neurexophilin 3)	1	-0.35	1.65	1.49	enough cells to score
Mrpl37 (mitochondrial ribosomal protein L37)	1	-0.59	1.57	1.5	enough cells to score
Gria3 (glutamate receptor, ionotropic, AMPA3 (alpha 3))	1	0.46	1.47	1.45	enough cells to score
Bhlhe41 (basic helix-loop-helix family, member e41)	1	-0.94	1.13	1.39	enough cells to score
Bcl6 (B cell leukemia/lymphoma 6)	1	-0.56	1.5	1.56	enough cells to score
Klk10 (kallikrein related-peptidase 10)	1	1.27	1.52	1.46	enough cells to score
Tnrc6b (trinucleotide repeat containing 6b)	1	-0.89	1.37	1.49	enough cells to score
Cd93 (CD93 antigen)	1	-0.44	1.53	1.56	enough cells to score
Gata5 (GATA binding protein 5)	1	-1.68 (active)	1.21	1.18	enough cells to score
Hspa2 (heat shock protein family A (Hsp70) member 2)	1		1.34	1.3	fewer than 50 cells per well; well left out of scoring
Ttll6 (tubulin tyrosine ligase-like family, member 6)	1		1.32	1.45	fewer than 50 cells per well; well left out of scoring
Kcne3	1	-0.25	1.41	1.38	enough cells to score
Parp3 (poly (ADP-ribose) polymerase family, member 3)	1	-0.59	1.57	1.49	enough cells to score
Cnpy4 (canopy FGF signaling regulator 4)	1		1.56	1.22	fewer than 50 cells per well; well left out of scoring
Eif6 (eukaryotic translation initiation factor 6)	1	-0.5	1.46	1.39	enough cells to score
Adgrb1 (adhesion G protein-coupled receptor B1)	1	0.54	1.58	1.66	enough cells to score
Hpgds (hematopoietic prostaglandin D synthase)	1	-0.99	1.4	1.24	enough cells to score
Or51l4 (olfactory receptor family 51 subfamily L member 4)	1		1.43	1.42	fewer than 50 cells per well; well left out of scoring
Ppp5c (protein phosphatase 5, catalytic subunit)	1	-1.37	1.35	1.19	enough cells to score
H2az1 (H2A.Z variant histone 1)	1	0.25	1.43	1.44	enough cells to score
Itga2b (integrin alpha 2b)	1	-0.73	1.29	1.36	enough cells to score
Cdk1 (cyclin dependent kinase 1)	1		1.65	1.46	fewer than 50 cells per well; well left out of scoring
Map2k6 (mitogen-activated protein kinase kinase 6)	1	0.51	1.77	1.44	enough cells to score
Bbx (bobby sox HMG box containing)	1		1.31	1.42	fewer than 50 cells per well; well left out of scoring
Tab2 (TGF-beta activated kinase 1/MAP3K7 binding protein 2)	1	-0.95	1.32	1.22	enough cells to score
Fadd (Fas associated via death domain)	1	-0.45	1.41	1.3	enough cells to score
Fate1 (fetal and adult testis expressed 1)	1	1.87	1.59	1.9	enough cells to score
Tmem50b (transmembrane protein 50B)	1	-1.62 (active)	1.36	1.28	enough cells to score
Trim9 (tripartite motif-containing 9)	1	-1.63 (active)	1.21	1.3	enough cells to score
Trim9 (tripartite motif-containing 9)	2	0.96	1.52	1.33	enough cells to score
Gabrg2 (gamma-aminobutyric acid type A receptor, subunit gamma 2)	1	-0.32	1.37	1.35	enough cells to score
Krt5 (keratin 5)	1	-0.49	1.46	1.27	enough cells to score
Zfp51 (zinc finger protein 51)	1	-0.38	1.32	1.24	enough cells to score
Sgo1 (shugoshin 1)	1		1.29	1.15	fewer than 50 cells per well; well left out of scoring
Ptpn12 (protein tyrosine phosphatase, non-receptor type 12)	1	-1.03	1.36	1.27	enough cells to score
Or52b4 (olfactory receptor family 52 subfamily B member 4)	1	0.42	1.31	1.32	enough cells to score
Bcl2l2 (BCL2-like 2)	1	-0.12	1.58	1.61	enough cells to score
Vps45 (vacuolar protein sorting 45)	1	-0.33	1.38	1.19	enough cells to score
Lap3 (leucine aminopeptidase 3)	1	-1.39	1.31	1.18	enough cells to score
Mettl21e (methyltransferase like 21E)	1		1.12	1.24	fewer than 50 cells per well; well left out of scoring
Unc80 (unc-80, NALCN activator)	1	2.38	1.78	1.83	enough cells to score
Mtcp1 (mature T cell proliferation 1)	1	0.03	1.42	1.37	enough cells to score
Grik2 (glutamate receptor, ionotropic, kainate 2 (beta 2))	1	1.37	1.52	1.64	enough cells to score
Or6c69 (olfactory receptor family 6 subfamily C member 69)	1		1.38	1.18	fewer than 50 cells per well; well left out of scoring
Akap5 (A kinase anchor protein 5)	1	0.86	1.86	1.45	enough cells to score
Or4a75 (olfactory receptor family 4 subfamily A member 75)	1	0.58	1.69	1.5	enough cells to score
Dhx32 (DEAH-box helicase 32 (putative))	1	-0.24	1.56	1.48	enough cells to score
Nat8f1 (N-acetyltransferase 8 (GCN5-related) family member 1)	1	0.21	1.57	1.87	enough cells to score
Exosc4 (exosome component 4)	1	-0.85	1.4	1.36	enough cells to score
Ubr7	1	2.08	1.65	1.71	enough cells to score
Magea4 (MAGE family member A4)	1	1.63	2.01	1.75	enough cells to score
Map2k3 (mitogen-activated protein kinase kinase 3)	1		1.45	1.37	fewer than 50 cells per well; well left out of scoring
Pdhb (pyruvate dehydrogenase (lipoamide) beta)	1	1.83	1.85	1.51	enough cells to score
Tgfb1 (transforming growth factor, beta 1)	1	0.08	1.53	1.53	enough cells to score
Sdk1 (sidekick cell adhesion molecule 1)	1	-0.4	1.35	1.49	enough cells to score
Spz1 (spermatogenic leucine zipper 1)	1	0.16	1.55	1.25	enough cells to score
Adss2 (adenylosuccinate synthase 2)	1	-0.54	1.5	1.58	enough cells to score
Tmem26 (transmembrane protein 26)	1	-0.21	1.49	1.74	enough cells to score
Krt15 (keratin 15)	1	-0.13	1.59	1.25	enough cells to score
Pla2g2a (phospholipase A2, group IIA (platelets, synovial fluid))	1		1.55	1.42	fewer than 50 cells per well; well left out of scoring
Tceal5 (transcription elongation factor A (SII)-like 5)	1	0.7	1.45	1.56	enough cells to score
Dzip1 (DAZ interacting protein 1)	1	-1.67 (active)	1.23	1.19	enough cells to score

Ordered by “nuclear/cytoplasmic p65 ratio, rep 1” (ascending): some entries from above.
gene	reagent	p65 translocation robust z-score	nuclear/cytoplasmic p65 ratio, rep 1	nuclear/cytoplasmic p65 ratio, rep 2	low cell count flag
Or6c69 (olfactory receptor family 6 subfamily C member 69)	1		1.38	1.18	fewer than 50 cells per well; well left out of scoring
Exosc4 (exosome component 4)	1	-0.85	1.4	1.36	enough cells to score
Mtcp1 (mature T cell proliferation 1)	1	0.03	1.42	1.37	enough cells to score
Grik2 (glutamate receptor, ionotropic, kainate 2 (beta 2))	1	1.37	1.52	1.64	enough cells to score
Dhx32 (DEAH-box helicase 32 (putative))	1	-0.24	1.56	1.48	enough cells to score
Nat8f1 (N-acetyltransferase 8 (GCN5-related) family member 1)	1	0.21	1.57	1.87	enough cells to score
Ubr7	1	2.08	1.65	1.71	enough cells to score
Or4a75 (olfactory receptor family 4 subfamily A member 75)	1	0.58	1.69	1.5	enough cells to score
Akap5 (A kinase anchor protein 5)	1	0.86	1.86	1.45	enough cells to score
